Test results published in paper PMC9039064.
These are yes or no findings as the source states them, for the method shown. In cells and extracts the contact can be indirect. Some entries that bind do so weakly or less than the wild type. For some assays here: Sequences can lack the tags named with a protein.

The chains behind the UniProt entries cited, without tags or fusion partners.
UniProt Q00987: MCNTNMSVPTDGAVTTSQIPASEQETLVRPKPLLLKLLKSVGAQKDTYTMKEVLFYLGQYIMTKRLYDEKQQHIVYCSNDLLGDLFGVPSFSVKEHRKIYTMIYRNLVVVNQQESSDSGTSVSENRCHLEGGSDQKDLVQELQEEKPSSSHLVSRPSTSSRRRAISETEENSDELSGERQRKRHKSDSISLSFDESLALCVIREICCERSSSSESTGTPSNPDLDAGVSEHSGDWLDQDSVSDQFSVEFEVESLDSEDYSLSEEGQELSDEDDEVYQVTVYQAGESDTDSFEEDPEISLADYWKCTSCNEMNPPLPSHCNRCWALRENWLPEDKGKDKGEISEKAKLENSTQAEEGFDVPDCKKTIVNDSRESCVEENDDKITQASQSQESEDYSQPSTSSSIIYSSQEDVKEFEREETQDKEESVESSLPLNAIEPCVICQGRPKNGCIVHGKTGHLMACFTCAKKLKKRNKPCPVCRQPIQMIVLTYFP
UniProt Q9Y566: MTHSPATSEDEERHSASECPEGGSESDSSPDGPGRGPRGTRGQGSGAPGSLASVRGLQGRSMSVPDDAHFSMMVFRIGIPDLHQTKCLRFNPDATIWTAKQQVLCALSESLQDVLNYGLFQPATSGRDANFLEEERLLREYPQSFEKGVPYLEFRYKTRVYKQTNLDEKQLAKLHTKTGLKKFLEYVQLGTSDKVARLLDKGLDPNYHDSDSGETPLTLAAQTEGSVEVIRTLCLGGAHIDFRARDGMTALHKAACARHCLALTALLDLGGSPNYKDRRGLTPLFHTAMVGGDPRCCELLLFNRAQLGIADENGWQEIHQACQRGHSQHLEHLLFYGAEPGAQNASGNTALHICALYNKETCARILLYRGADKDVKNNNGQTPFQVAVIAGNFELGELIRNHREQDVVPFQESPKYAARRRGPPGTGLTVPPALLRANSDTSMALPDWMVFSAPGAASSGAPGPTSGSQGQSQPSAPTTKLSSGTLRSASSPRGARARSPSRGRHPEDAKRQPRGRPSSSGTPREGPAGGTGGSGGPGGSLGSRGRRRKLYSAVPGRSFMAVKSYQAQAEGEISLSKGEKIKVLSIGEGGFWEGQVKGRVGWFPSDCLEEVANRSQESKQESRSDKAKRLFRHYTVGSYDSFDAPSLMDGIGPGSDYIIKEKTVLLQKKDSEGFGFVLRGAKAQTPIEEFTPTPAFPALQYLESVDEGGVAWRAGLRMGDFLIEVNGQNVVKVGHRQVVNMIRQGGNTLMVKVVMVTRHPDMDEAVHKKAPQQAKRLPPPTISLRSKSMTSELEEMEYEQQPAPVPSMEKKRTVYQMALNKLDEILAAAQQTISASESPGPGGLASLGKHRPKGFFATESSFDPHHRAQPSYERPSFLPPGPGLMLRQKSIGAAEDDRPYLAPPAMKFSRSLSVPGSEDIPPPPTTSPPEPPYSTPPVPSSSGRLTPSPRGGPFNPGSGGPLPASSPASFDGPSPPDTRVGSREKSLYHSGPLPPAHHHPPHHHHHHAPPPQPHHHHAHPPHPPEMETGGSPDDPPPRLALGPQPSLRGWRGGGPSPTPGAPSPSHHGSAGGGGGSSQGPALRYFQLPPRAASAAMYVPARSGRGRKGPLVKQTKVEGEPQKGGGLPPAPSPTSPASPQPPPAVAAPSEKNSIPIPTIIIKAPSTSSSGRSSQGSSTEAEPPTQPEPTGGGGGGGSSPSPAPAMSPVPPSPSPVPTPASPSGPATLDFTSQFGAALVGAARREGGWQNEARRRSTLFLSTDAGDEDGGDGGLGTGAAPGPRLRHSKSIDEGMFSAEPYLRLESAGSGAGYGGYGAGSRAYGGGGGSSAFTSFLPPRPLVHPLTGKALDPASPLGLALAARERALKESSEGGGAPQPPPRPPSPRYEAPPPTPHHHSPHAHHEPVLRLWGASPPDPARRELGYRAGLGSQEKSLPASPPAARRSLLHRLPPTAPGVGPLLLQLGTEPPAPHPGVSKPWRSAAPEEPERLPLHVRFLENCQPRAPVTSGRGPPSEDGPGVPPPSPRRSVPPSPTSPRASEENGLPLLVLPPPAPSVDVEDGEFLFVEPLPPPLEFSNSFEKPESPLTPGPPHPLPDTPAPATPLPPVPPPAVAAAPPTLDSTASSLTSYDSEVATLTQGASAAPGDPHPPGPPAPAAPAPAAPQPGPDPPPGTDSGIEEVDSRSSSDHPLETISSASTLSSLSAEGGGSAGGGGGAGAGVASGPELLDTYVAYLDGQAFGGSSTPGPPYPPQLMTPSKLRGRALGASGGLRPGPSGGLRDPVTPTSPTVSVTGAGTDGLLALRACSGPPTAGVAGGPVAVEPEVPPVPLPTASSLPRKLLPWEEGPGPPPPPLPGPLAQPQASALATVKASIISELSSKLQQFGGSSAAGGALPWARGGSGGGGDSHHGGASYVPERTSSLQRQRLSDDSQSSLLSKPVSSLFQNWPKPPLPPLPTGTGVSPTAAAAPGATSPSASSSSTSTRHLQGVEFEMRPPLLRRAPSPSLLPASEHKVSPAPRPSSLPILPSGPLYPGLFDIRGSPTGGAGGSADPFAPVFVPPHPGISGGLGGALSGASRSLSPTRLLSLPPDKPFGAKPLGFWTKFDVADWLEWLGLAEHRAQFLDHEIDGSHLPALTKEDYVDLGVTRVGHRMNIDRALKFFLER

B1: Klotho (KL), endogenous in human NSCLC cells (protein, UniProt Q9UEF7 34-1012)
chain: EPGDGAQTWARFSRPPAPEAAGLFQGTFPDGFLWAVGSAAYQTEGGWQQHGKGASIWDTFTHHPLAPPGDSRNASLPLGAPSPLQPATGDVASDSYNNVFRDTEALRELGVTHYRFSISWARVLPNGSAGVPNREGLRYYRRLLERLRELGVQPVVTLYHWDLPQRLQDAYGGWANRALADHFRDYAELCFRHFGGQVKYWITIDNPYVVAWHGYATGRLAPGIRGSPRLGYLVAHNLLLAHAKVWHLYNTSFRPTQGGQVSIALSSHWINPRRMTDHSIKECQKSLDFVLGWFAKPVFIDGDYPESMKNNLSSILPDFTESEKKFIKGTADFFALCFGPTLSFQLLDPHMKFRQLESPNLRQLLSWIDLEFNHPQIFIVENGWFVSGTTKRDDAKYMYYLKKFIMETLKAIKLDGVDVIGYTAWSLMDGFEWHRGYSIRRGLFYVDFLSQDKMLLPKSSALFYQKLIEKNGFPPLPENQPLEGTFPCDFAWGVVDNYIQVDTTLSQFTDLNVYLWDVHHSKRLIKVDGVVTKKRKSYCVDFAAIQPQIALLQEMHVTHFRFSLDWALILPLGNQSQVNHTILQYYRCMASELVRVNITPVVALWQPMAPNQGLPRLLARQGAWENPYTALAFAEYARLCFQELGHHVKLWITMNEPYTRNMTYSAGHNLLKAHALAWHVYNEKFRHAQNGKISIALQADWIEPACPFSQKDKEVAERVLEFDIGWLAEPIFGSGDYPWVMRDWLNQRNNFLLPYFTEDEKKLIQGTFDFLALSHYTTILVDSEKEDPIKYNDYLEVQEMTDITWLNSPSQVAVVPWGLRKVLNWLKFKYGDLPMYIISNGIDDGLHAEDDQLRVYYMQNYINEALKAHILDGINLCGYFAYSFNDRTAPRFGLYRYAADQFEPKASMKHYRKIIDSNGFPGPETLERFCPEEFTVCTECSFFHTRKSLLAFIAFLFFASIISLSLIFYYSKKGRRSYK
B2: Flag-KL (Flag-tagged Klotho) (protein, UniProt Q9UEF7 34-1012)
chain: B1 chain

Experiments:
[1] = target: MDM2, endogenous in human NSCLC cells (human (endogenous in A549 and H1299)) (UniProt Q00987); assay: co-IP; endogenous proteins, A549 cell lysate; IP with mouse anti-MDM2 or rabbit anti-KL; immunoblot; some samples with si-SHANK1
[2] = target: SHANK1-myc (SH3 and multiple ankyrin repeat domains 1, myc-tagged) (UniProt Q9Y566); assay: co-IP; transfected A549 cells (the text says HEK-293 for Fig. 5A); lysate in TNE buffer or IP buffer (50 mM Tris-HCl, 2 mM EDTA, 250 mM NaCl, 10% glycerol, 0.5% NP-40); IP with anti-FLAG, anti-HA or anti-Myc and Protein G agarose overnight at 4 °C; immunoblot; some samples with SHANK1 overexpression, sh/si-SHANK1 or si-MDM2

Binder | binding [1] | binding [2]
B1 | binds | 
B2 |  | binds
